# Results of single-concentration screens

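Assay of Toxoplasma gondii numbers, read through their beta-galactosidase reporter with a colour substrate. Tested at 10 µM. Higher reads as fewer parasites (inferred from which compounds were picked for retests). Of about 67,000 compounds tested this way, about 260 (0.38%) reached 50% or more in at least one test.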

The filed quantity is “Percent Effect” (%).
The record does not define 0% and 100%; most values in the screen are far below 50% and negative numbers occur (in some assays of this library far below -100).
This is an unselected part of the compounds tested.

{"structure": "O=C(C1CC1)N1CCN(c2ccc(-n3cncn3)nn2)CC1", "percent effect": -0.1287}
{"structure": "Cc1cnn(CC2CCCN2CC(=O)N(C)Cc2cnn(C)c2)c1", "stereo": "stereo unspecified", "percent effect": -4.551}
{"structure": "COc1ccc2c(C)nc(N3C[C@@H](C)O[C@@H](C)C3)nc2c1", "percent effect": -2.403}
{"structure": "CCN(C)S(=O)(=O)NCC1(c2cccc(Br)c2)CC1", "percent effect": -29.17}
{"structure": "O=C(O)C(F)(F)F.O=C(O)C(F)(F)F.[H][C@@]12CN(C(=O)c3ccnnc3)C[C@]1([H])OCCN2CCN1CCCC1", "percent effect": -2.851}
{"structure": "Cc1ccc(-n2nnc(C(=O)NCCS(N)(=O)=O)c2C2CC2)cc1", "percent effect": -0.05359}
{"structure": "Cn1ccnc1CN1CCC2(CCCN2c2ncccn2)CC1.O=C(O)C(F)(F)F", "percent effect": -18.16}
{"structure": "CN(Cc1nc(Cc2cccc(C(F)(F)F)c2)no1)CC1CCCCO1", "stereo": "stereo unspecified", "percent effect": 13.32}
{"structure": "CCS(=O)(=O)N1CCc2c(COCCN(C)C)cncc2C1.O=C(O)C(F)(F)F.O=C(O)C(F)(F)F", "percent effect": 11.43}
{"structure": "O=S(=O)(NCc1cccnc1OC1CCCC1)N1CCCCC1", "percent effect": 1.323}
{"structure": "O=C(Nc1cccnc1)C1Cc2nc(-c3ccsc3)sc2N1CC1CC1.O=C(O)C(F)(F)F", "stereo": "stereo unspecified", "percent effect": -7.031}
{"structure": "Cl.Fc1ccc(-c2cnc(C3CCCN3)cn2)cc1", "stereo": "stereo unspecified", "percent effect": -13.94}
{"structure": "Cc1cc2n(n1)CCN(c1nc(N)nc3c1CCNCC3)C2", "percent effect": -2.347}
{"structure": "CC(NC(=O)N1CCSC(C)(C)C1)c1noc(-c2ccccc2)n1", "stereo": "stereo unspecified", "percent effect": 2.67}
{"structure": "CCOCCC(=O)N(C)Cc1noc(C(C)C)n1", "percent effect": -0.9077}
{"structure": "O=C(NCCN1CCCCCC1=O)c1n[nH]c(=O)c2ccccc12", "percent effect": 1.165}
{"structure": "CCC(C)(C)NC(=O)Cn1nc(C)nc1-c1cccc(C)c1", "percent effect": 2.118}
{"structure": "COCCNc1nnc(-c2ccc(C)nc2)s1", "percent effect": 91.21}
{"structure": "COc1cccc2c1OCC(CNC(=O)CCn1cnnn1)C2", "stereo": "stereo unspecified", "percent effect": -12.3}
{"structure": "Clc1ccccc1C1(c2ccnc(-c3ccncc3)n2)CCNCC1", "percent effect": 16.95}
{"structure": "CN(CCCO)Cc1cc(Cl)ccc1OCC(O)CN1CCCCCC1", "stereo": "stereo unspecified", "percent effect": -9.522}
{"structure": "Cc1cc(C(=O)N2CCC(c3nccn3Cc3ccccn3)CC2)no1", "percent effect": -9.246}
{"structure": "CCNC(=O)[C@H]1CN(Cc2ccccc2)C[C@@H]1C(=O)c1ccccc1", "percent effect": 23.57}
{"structure": "CC(C)CN(C)c1ccc(C(=O)N2CCCC2c2cnn(C)c2)cn1", "stereo": "stereo unspecified", "percent effect": 3.578}
{"structure": "[H][C@@]12CS(=O)(=O)C[C@]1([H])NCCN2c1ccnc(N(C)CCN2CCCC2)n1", "percent effect": -2.375}
{"structure": "Cc1ccc(C#N)c(N2CCCC(c3nccn3Cc3cscn3)C2)n1", "stereo": "stereo unspecified", "percent effect": 8.218}
{"structure": "CN(Cc1ncnn1C1Cc2ccccc2C1)C1CCS(=O)(=O)C1", "stereo": "stereo unspecified", "percent effect": -8.529}
{"structure": "Cc1cn(-c2ccccc2)nc1NS(=O)(=O)c1ccc(C(=O)O)cc1", "percent effect": -23.19}
{"structure": "COc1ccccc1NC(=O)NCC(O)(c1ccccc1)C1CC1", "stereo": "stereo unspecified", "percent effect": 10.84}
{"structure": "O=C(CCC(=O)N1CCCC1c1cccs1)N1CCc2sccc2C1", "stereo": "stereo unspecified", "percent effect": 5.227}
{"structure": "CC(C)Cc1cc(CC2(NCc3ccccc3Cl)COC2)no1", "percent effect": -7.712}
{"structure": "CN1N=C(C(=O)N2CCCCC2)S(=O)(=O)c2ccccc21", "percent effect": -3.736}
{"structure": "Cc1ccc(CN(C)C(=O)CN2CC(n3cccn3)C2)o1", "percent effect": -0.05028}
{"structure": "CC(C)Cc1noc(CN2CCN(C(=O)c3ccco3)CC2)n1", "percent effect": 7.852}
{"structure": "NC(=O)c1c(-c2ccc(Cl)cc2)csc1NC(=O)CCC(=O)O", "percent effect": -0.7646}
{"structure": "[H][C@]12CC[C@]([H])(CN(c3cnccn3)C1)N(C(=O)c1csc(C)c1CC)C2", "percent effect": -4.744}
{"structure": "c1csc(-c2nc(CN3CCCCC3Cn3cccn3)co2)c1", "stereo": "stereo unspecified", "percent effect": 3.887}
{"structure": "COc1ccc(CNC(=O)CNc2cc3c(cc2Cl)OCCO3)cc1", "percent effect": -26.84}
{"structure": "COCCN1CCc2ncnc(N(C)C)c2CC1", "percent effect": -5.557}
{"structure": "CC(C)(C)CN[C@@H]1CO[C@H](CNC(=O)Nc2ccccc2)[C@H]1O", "percent effect": 27.68}
{"structure": "CN(C)CCCNCCC(c1ccccc1)C1CCOC(C)(C)C1.O=C(O)C(=O)O", "stereo": "stereo unspecified", "percent effect": 13.16}
{"structure": "CC(C(=O)Nc1cccc(Cl)c1SC(F)F)S(C)(=O)=O", "stereo": "stereo unspecified", "percent effect": 5.085}
{"structure": "Cc1ccsc1-c1nccn1CCN1CCCCC1CO", "stereo": "stereo unspecified", "percent effect": -2.117}
{"structure": "Cc1c(C(=O)NCCC(=O)N2CCCC2)oc2c(F)cccc12", "percent effect": 0}
{"structure": "O=C(O)C(F)(F)F.[H][C@@]12CCN(C(=O)c3cnn(C)c3)[C@@]1([H])CCN2Cc1ccc(OC)cc1", "percent effect": 0.8069}
{"structure": "Cn1ccc2ccnc(CC3CN(C(=O)c4cscn4)C3)c21", "percent effect": 1.107}
{"structure": "Cc1cccc(NCc2nn(C)c(=O)[nH]2)c1", "percent effect": -0.4263}

The last 6 entries again:

structure,percent effect
CC(C(=O)Nc1cccc(Cl)c1SC(F)F)S(C)(=O)=O (stereo unspecified),5.085%
Cc1ccsc1-c1nccn1CCN1CCCCC1CO (stereo unspecified),-2.117%
Cc1c(C(=O)NCCC(=O)N2CCCC2)oc2c(F)cccc12,0%
O=C(O)C(F)(F)F.[H][C@@]12CCN(C(=O)c3cnn(C)c3)[C@@]1([H])CCN2Cc1ccc(OC)cc1,0.8069%
Cn1ccc2ccnc(CC3CN(C(=O)c4cscn4)C3)c21,1.107%
Cc1cccc(NCc2nn(C)c(=O)[nH]2)c1,-0.4263%

Source: ChEMBL document CHEMBL3988442, “University of Dundee, Small-Polar-MMV Screening Library” (2021).